Experimental data published in PMC12189040.
Results are given in words; binding and its absence hold for the method and conditions named. Binding seen in cells or lysates may run through a third protein. Some entries that bind do so weakly or less than the wild type. Where a sequence is shown, tags or fusion partners need not be part of it.

Amino acid sequences for entries named in this document (tags omitted).
UniProt P42230: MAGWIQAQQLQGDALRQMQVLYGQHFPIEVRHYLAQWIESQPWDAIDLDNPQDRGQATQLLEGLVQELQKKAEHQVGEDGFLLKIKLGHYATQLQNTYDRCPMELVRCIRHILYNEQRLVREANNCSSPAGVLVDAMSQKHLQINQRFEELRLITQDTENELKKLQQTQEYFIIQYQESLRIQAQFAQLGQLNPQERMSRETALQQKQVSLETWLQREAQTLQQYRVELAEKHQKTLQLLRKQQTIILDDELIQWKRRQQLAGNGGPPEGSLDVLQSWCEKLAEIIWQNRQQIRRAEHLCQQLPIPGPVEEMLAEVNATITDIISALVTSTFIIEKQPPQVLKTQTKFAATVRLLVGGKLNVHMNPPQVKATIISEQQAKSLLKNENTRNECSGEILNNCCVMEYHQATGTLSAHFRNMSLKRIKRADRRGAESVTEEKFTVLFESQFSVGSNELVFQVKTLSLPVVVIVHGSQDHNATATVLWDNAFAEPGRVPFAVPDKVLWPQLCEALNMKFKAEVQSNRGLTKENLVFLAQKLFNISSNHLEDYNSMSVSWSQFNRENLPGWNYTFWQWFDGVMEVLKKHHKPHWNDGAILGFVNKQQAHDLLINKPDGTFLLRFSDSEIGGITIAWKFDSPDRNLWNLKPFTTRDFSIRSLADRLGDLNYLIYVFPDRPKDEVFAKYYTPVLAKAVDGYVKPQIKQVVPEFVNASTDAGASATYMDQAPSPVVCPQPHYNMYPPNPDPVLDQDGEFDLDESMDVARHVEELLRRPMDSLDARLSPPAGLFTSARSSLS

T1: Hyaluronan-binding protein involved in hyaluronan (HYBID), Flag-tagged (UniProt Q8BI06)
T1 sequence: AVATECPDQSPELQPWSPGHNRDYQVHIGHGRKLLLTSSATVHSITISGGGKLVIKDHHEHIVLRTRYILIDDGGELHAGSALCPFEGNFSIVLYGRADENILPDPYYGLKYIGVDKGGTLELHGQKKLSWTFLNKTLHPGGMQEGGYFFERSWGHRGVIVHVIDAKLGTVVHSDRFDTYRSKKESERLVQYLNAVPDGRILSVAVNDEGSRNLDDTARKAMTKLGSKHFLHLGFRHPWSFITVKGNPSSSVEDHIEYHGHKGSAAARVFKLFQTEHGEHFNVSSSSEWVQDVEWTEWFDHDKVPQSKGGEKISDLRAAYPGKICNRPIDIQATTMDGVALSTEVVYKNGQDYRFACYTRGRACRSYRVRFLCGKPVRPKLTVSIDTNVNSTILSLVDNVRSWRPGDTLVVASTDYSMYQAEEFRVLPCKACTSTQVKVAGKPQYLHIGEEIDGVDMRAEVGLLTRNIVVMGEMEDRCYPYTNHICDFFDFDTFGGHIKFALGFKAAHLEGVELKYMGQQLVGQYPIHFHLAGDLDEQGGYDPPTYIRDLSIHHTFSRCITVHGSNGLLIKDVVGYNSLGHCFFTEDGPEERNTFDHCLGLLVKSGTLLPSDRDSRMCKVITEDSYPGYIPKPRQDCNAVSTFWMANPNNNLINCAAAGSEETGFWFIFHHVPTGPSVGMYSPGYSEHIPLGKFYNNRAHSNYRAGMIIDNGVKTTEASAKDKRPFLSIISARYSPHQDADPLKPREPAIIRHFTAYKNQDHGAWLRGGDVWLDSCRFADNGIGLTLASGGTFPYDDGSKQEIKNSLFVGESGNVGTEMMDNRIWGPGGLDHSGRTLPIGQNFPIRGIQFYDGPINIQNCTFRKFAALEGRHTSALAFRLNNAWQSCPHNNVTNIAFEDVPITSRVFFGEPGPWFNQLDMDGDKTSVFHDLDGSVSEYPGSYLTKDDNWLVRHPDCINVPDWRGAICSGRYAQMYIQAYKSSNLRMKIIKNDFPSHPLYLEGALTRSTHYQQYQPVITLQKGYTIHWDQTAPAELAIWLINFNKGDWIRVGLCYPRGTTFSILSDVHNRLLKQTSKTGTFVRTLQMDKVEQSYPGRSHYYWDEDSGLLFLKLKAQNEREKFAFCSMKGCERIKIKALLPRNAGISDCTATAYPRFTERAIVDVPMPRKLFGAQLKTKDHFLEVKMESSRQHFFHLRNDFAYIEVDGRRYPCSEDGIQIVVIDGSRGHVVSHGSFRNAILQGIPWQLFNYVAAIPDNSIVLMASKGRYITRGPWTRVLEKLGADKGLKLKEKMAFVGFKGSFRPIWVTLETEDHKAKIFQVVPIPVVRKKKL

B1: Hyaluronan-binding protein involved in hyaluronan (HYBID), Flag-tagged (protein, UniProt Q8BI06 31-1361)
chain: T1 sequence

What was measured:
[1] = biological target: T1, Hyaluronan-binding protein involved in hyaluronan (HYBID), Flag-tagged; experiment: co-IP; HEK293-T cell lysates incubated with IP-grade antibodies for 1 h, magnetic protein A/G beads, Western blot; IP Flag-HYBID with IB HA-STAT5A, and IP HA-STAT5A with IB Flag-HYBID
[2] = biological target: Signal transducer and activator of transcription 5A (STAT5A), HA-tagged, full length (UniProt P42230); experiment: as above

Molecule	binding [1]	binding [2]
Signal transducer and activator of transcription 5A (STAT5A), HA-tagged, full length (from UniProt P42230 1-793)	binds	
B1		binds
